The results in this text go back to PMC12637713.

B1: signal peptidase complex subunit 3 (protein, UniProt P61009 1-180)
chain: MNTVLSRANSLFAFSLSVMAALTFGCFITTAFKDRSVPVRLHVSRIMLKNVEDFTGPRERSDLGFITFDITADLENIFDWNVKQLFLYLSAEYSTKNNALNQVVLWDKIVLRGDNPKLLLKDMKTKYFFFDDGNGLKGNRNVTLTLSWNVVPNAGILPLVTGSGHVSVPFPDTYEITKSY
B2: signal peptidase complex catalytic subunit SEC11C (protein, UniProt Q9BY50 1-192)
chain: MVRAGAVGAHLPASGLDIFGDLKKMNKRQLYYQVLNFAMIVSSALMIWKGLIVLTGSESPIVVVLSGSMEPAFHRGDLLFLTNFREDPIRAGEIVVFKVEGRDIPIVHRVIKVHEKDNGDIKFLTKGDNNEVDDRGLYKEGQNWLEKKDVVGRARGFLPYVGMVTIIMNDYPKFKYALLAVMGAYVLLKRES
B3: signal peptidase complex subunit 1 (endogenous) (protein, UniProt Q9Y6A9 1-169)
chain: MARGGDTGCTGPSETSASGAAAIALPGLEGPATDAQCQTLPLTVLKSRSPSPRSLPPALSCPPPQPAMLEHLSSLPTQMDYKGQKLAEQMFQGIILFSAIVGFIYGYVAEQFGWTVYIVMAGFAFSCLLTLPPWPIYRRHPLKWLPVQESSTDDKKPGERKIKRHAKNN

No constants are given. Whether binding was seen depends on the method and setting. Binding seen in cells or lysates may run through a third protein. A yes stands for co-enrichment or nearness to the bait. Other partners may have been found.

In this assay the target is GFP-tagged DS1-VP7 (VP7 of human rotavirus DS1 strain) (human rotavirus DS1 strain). Put plainly: affinity purification with mass spectrometry; tandem affinity purification (two rounds of immunoprecipitation) of DS1 VP7 followed by LC-MS/MS; host proteins that co-precipitate.
For B1, the binding entry is given as “binds”.

As to B2, the binding entry is listed as “binds”.

On to B3, for which the binding result is listed as “binds”.
